Reference: the supplement of paper PMC10735217
The other results are listed elsewhere or left out. Repeats in this data set agree poorly, so a single value says little.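 Human kidney-derived cells stably carry a construct in which eight TEAD-binding elements drive luciferase, measured by luminescence in a drug-repurposing library screen. A hit is any compound whose signal exceeds the plate mean by more than five robust Z scores.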

Test system: HEK293A TEAD-LUC reporter
Assay: TEAD-luciferase reporter activity (YAP activation), robust Z score vs plate; higher = stronger YAP/TEAD activation
Conditions: 24 h

Structure (SMILES): Cc1c(C)c2c(c(C)c1O)CC[C@@](C)(C(=O)N[C@@H]1CCCNC1)O2
- TEAD-luciferase reporter activity (compound concentration: 200 nM): inactive: -0.228
- TEAD-luciferase reporter activity (compound concentration: 2 uM): inactive: -0.667
- TEAD-luciferase reporter activity (compound concentration: 10 uM): inactive: -1.49

Structure (SMILES): Cc1ncc(COC(=O)C(C)c2ccc(CC(C)C)cc2)c(CO)c1O (stereo unspecified) [piridoxiprofen]
- TEAD-luciferase reporter activity (compound concentration: 200 nM): inactive: -0.914
- TEAD-luciferase reporter activity (compound concentration: 2 uM): inactive: -0.108
- TEAD-luciferase reporter activity (compound concentration: 10 uM): inactive: 0.464

Structure (SMILES): COc1ccc(F)c(F)c1C(=O)c1cnc(NC2CCN(S(C)(=O)=O)CC2)nc1N
- TEAD-luciferase reporter activity (compound concentration: 200 nM): inactive: -0.73
- TEAD-luciferase reporter activity (compound concentration: 2 uM): inactive: -2.69
- TEAD-luciferase reporter activity (compound concentration: 10 uM): inactive: 1.9

Structure (SMILES): c1cn2cc(-c3ccc4c(c3)nc3n4CCN4CCCCC4C3)ccc2n1 (stereo unspecified)
- TEAD-luciferase reporter activity (compound concentration: 200 nM): inactive: -0.411
- TEAD-luciferase reporter activity (compound concentration: 2 uM): inactive: -0.681
- TEAD-luciferase reporter activity (compound concentration: 10 uM): inactive: 1

Structure (SMILES): O=C(c1ccc(F)cc1)c1ccccc1N[C@@H](Cc1ccc(OCCn2c3ccccc3c3ccccc32)cc1)C(=O)O [Chiglitazar]
- TEAD-luciferase reporter activity (compound concentration: 200 nM): inactive: -0.567
- TEAD-luciferase reporter activity (compound concentration: 2 uM): inactive: -0.651
- TEAD-luciferase reporter activity (compound concentration: 10 uM): inactive: 2.54

Structure (SMILES): CC1(C(=O)O)CCN(C(=O)c2ccc3c(c2)OC(F)(F)O3)CC1
- TEAD-luciferase reporter activity (compound concentration: 200 nM): inactive: 2.4
- TEAD-luciferase reporter activity (compound concentration: 10 uM): inactive: 4.47

Structure (SMILES): CCc1ccc(/C=C2\SC(=N)NC2=O)cc1
- TEAD-luciferase reporter activity (compound concentration: 200 nM): active: 5.09
- TEAD-luciferase reporter activity (compound concentration: 2 uM): inactive: 3.31
- TEAD-luciferase reporter activity (compound concentration: 10 uM): inactive: 2.07

Structure (SMILES): CCCNC(=O)COc1c(C(=O)Cc2c(Cl)cncc2Cl)ccc(OC)c1OC
- TEAD-luciferase reporter activity (compound concentration: 200 nM): inactive: 0.477
- TEAD-luciferase reporter activity (compound concentration: 2 uM): inactive: -0.333
- TEAD-luciferase reporter activity (compound concentration: 10 uM): inactive: -1.32

Structure (SMILES): COC(=O)N[C@H](C(=O)N1CCC[C@H]1c1nc2cc([C@H]3CC[C@H](c4cc5nc([C@@H]6CCCN6C(=O)[C@@H](NC(=O)OC)[C@@H](C)OC)[nH]c5cc4F)N3c3cc(F)c(N4CCC(c5ccc(F)cc5)CC4)c(F)c3)c(F)cc2[nH]1)[C@@H](C)OC [Pibrentasvir]
- TEAD-luciferase reporter activity (compound concentration: 200 nM): inactive: -1.01
- TEAD-luciferase reporter activity (compound concentration: 2 uM): inactive: -1.57
- TEAD-luciferase reporter activity (compound concentration: 10 uM): inactive: -0.0619

Structure (SMILES): NS(=O)(=O)c1ccc(N2C(=O)CC(c3ccccc3)C2=O)c(Cl)c1 (stereo unspecified)
- TEAD-luciferase reporter activity (compound concentration: 200 nM): inactive: -1.21
- TEAD-luciferase reporter activity (compound concentration: 2 uM): inactive: -0.59
- TEAD-luciferase reporter activity (compound concentration: 10 uM): inactive: -2.07

Structure (SMILES): C[C@@H]1CN(c2nc3c(cc2F)c(=O)c(C(=O)O)cn3C(C)(C)C)C[C@H]1N
- TEAD-luciferase reporter activity (compound concentration: 200 nM): inactive: 0.211
- TEAD-luciferase reporter activity (compound concentration: 2 uM): inactive: 0.569
- TEAD-luciferase reporter activity (compound concentration: 10 uM): inactive: 3.61

Structure (SMILES): O=C1N=C(O)NC1(c1ccccc1)c1ccccc1 [phenytoin sodium]
- TEAD-luciferase reporter activity (compound concentration: 200 nM): inactive: 2.05
- TEAD-luciferase reporter activity (compound concentration: 10 uM): inactive: 1.77

Structure (SMILES): O=C1N=C(O)NC1(c1ccccc1)c1ccccc1 [Phenytoin sodium]
- TEAD-luciferase reporter activity (compound concentration: 2 uM): inactive: 3.35

Structure (SMILES): COC(=O)C1c2cc3c(c(O)c2C(O[C@@H]2O[C@@H](C)[C@H](OC)[C@@](C)(OC)[C@H]2OC)CC1(C)O)C(=O)c1c(O)cc2c(c1C3=O)OC1OC2(C)C(O)C(N(C)C)C1O (stereo partly specified) [Nogalamycin]
- TEAD-luciferase reporter activity (compound concentration: 200 nM): inactive: -1.09
- TEAD-luciferase reporter activity (compound concentration: 2 uM): inactive: 0.531
- TEAD-luciferase reporter activity (compound concentration: 10 uM): inactive: 1.41

Structure (SMILES): Cc1c(CC(C)C)sc2nc(C(=O)O)[nH]c(=O)c12 [tiprinast]
- TEAD-luciferase reporter activity (compound concentration: 200 nM): inactive: 0.795
- TEAD-luciferase reporter activity (compound concentration: 2 uM): inactive: -0.419
- TEAD-luciferase reporter activity (compound concentration: 10 uM): inactive: 2.93

Structure (SMILES): CC[N+](CC)(CCO)C1c2ccccc2-c2ccccc21
- TEAD-luciferase reporter activity (compound concentration: 200 nM): inactive: -1.63
- TEAD-luciferase reporter activity (compound concentration: 2 uM): inactive: -1.34
- TEAD-luciferase reporter activity (compound concentration: 10 uM): inactive: 0.583

Structure (SMILES): O=C(CCOc1ccc(Cl)cc1Cl)NC[C@H]1CN(c2ccc(N3CCOCC3)c(F)c2)C(=O)O1
- TEAD-luciferase reporter activity (compound concentration: 200 nM): inactive: -0.349
- TEAD-luciferase reporter activity (compound concentration: 2 uM): inactive: -0.658
- TEAD-luciferase reporter activity (compound concentration: 10 uM): inactive: 2.21

Structure (SMILES): CC(C)Cc1c[nH]c(C(=O)O)c1
- TEAD-luciferase reporter activity (compound concentration: 200 nM): inactive: 0.0627
- TEAD-luciferase reporter activity (compound concentration: 2 uM): inactive: 1.38
- TEAD-luciferase reporter activity (compound concentration: 10 uM): inactive: 1.38

Structure (SMILES): COc1cc2cc(C3=NNC(=O)CC3C)sc2cc1OC (stereo unspecified)
- TEAD-luciferase reporter activity (compound concentration: 200 nM): inactive: 0.298
- TEAD-luciferase reporter activity (compound concentration: 2 uM): inactive: -0.245
- TEAD-luciferase reporter activity (compound concentration: 10 uM): inactive: -0.943

Structure (SMILES): O=C1CCC[C@H](c2ccccc2)C1
- TEAD-luciferase reporter activity (compound concentration: 200 nM): inactive: -0.238
- TEAD-luciferase reporter activity (compound concentration: 2 uM): inactive: 0.0571
- TEAD-luciferase reporter activity (compound concentration: 10 uM): inactive: -0.52

Structure (SMILES): CCOC(=O)c1cnc2cc(OCC(C)C)c(OCC(C)C)cc2c1O
- TEAD-luciferase reporter activity (compound concentration: 200 nM): inactive: 1.3
- TEAD-luciferase reporter activity (compound concentration: 10 uM): inactive: -0.429

Structure (SMILES): CCOC(=O)c1cnc2cc(OCC(C)C)c(OCC(C)C)cc2c1O [Buquinolate]
- TEAD-luciferase reporter activity (compound concentration: 2 uM): inactive: 0.974

Structure (SMILES): CCC(C)NC(C)(C)C(C)C (stereo unspecified)
- TEAD-luciferase reporter activity (compound concentration: 200 nM): inactive: -1.12
- TEAD-luciferase reporter activity (compound concentration: 2 uM): inactive: -1.86
- TEAD-luciferase reporter activity (compound concentration: 10 uM): inactive: 0.652

Structure (SMILES): C[C@H]1C[C@@H](n2c(Nc3ccc(OC(F)(F)F)cc3)nc3cc(CCC(=O)O)ccc32)CC(C)(C)C1
- TEAD-luciferase reporter activity (compound concentration: 200 nM): inactive: -0.157
- TEAD-luciferase reporter activity (compound concentration: 2 uM): inactive: -1.33
- TEAD-luciferase reporter activity (compound concentration: 10 uM): inactive: -0.227

Structure (SMILES): NC1CCN(c2cccc(Cl)n2)CC1
- TEAD-luciferase reporter activity (compound concentration: 200 nM): inactive: 0.405
- TEAD-luciferase reporter activity (compound concentration: 2 uM): inactive: -1.14
- TEAD-luciferase reporter activity (compound concentration: 10 uM): inactive: 0.804

Structure (SMILES): Cc1c(-c2ccc(C(=O)N3CCC(C#N)CC3)s2)noc1C(F)(F)F
- TEAD-luciferase reporter activity (compound concentration: 200 nM): inactive: -1.08
- TEAD-luciferase reporter activity (compound concentration: 2 uM): inactive: 0.574
- TEAD-luciferase reporter activity (compound concentration: 10 uM): inactive: -1.19
